Results published in patent publication US20160115235A1.
No constants are given. Whether binding was seen depends on the method and setting. Some entries that bind do so weakly or less than the wild type. Blank lines part the entries; values can stand above or below the binder they belong to.

Chains of the proteins cited; added tags and fusions are not shown. Lines headed by an entry give the natural chain unless they say otherwise; changes in a name come on top.
UniProt P32302: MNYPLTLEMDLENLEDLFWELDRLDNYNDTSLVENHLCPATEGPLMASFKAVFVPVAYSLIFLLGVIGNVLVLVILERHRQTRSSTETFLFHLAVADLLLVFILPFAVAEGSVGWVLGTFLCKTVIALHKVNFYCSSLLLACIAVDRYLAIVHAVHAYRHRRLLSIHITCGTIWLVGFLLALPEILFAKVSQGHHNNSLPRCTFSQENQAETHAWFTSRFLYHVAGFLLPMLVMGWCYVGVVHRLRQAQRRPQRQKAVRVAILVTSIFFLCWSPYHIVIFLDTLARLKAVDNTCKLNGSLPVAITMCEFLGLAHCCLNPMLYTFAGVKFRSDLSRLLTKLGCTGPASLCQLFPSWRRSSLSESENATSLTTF

Tests used:
human CXCR5 (human) = human CXCR5 (human) (UniProt P32302); assay: FACS on CXCR5 expressing cells
[1] = target: cynomolgus monkey (Macaca fascicularis) CXCR5 (cynomolgus monkey (Macaca fascicularis)); assay: FACS on CXCR5 expressing cells

- binding (human CXCR5 (human)): binds
B1: mAb 80A10 (antibody, V domains shown)
VH: EVQLLESGGGLVQPGGSLRLSCAASGFTFSMYVMKWVRQAPGKGLEWVSGIRSSGGDTSYADSVKGRFTISRDNSKNTLYLQMNSLRAEDTAVYYCARQSRYCNGGSCYSRAFDIWGQGTMVTVSS
VL: QPPSASGTPGQRVTISCFGSNSNIGSTYAYWYQQVPGTAPKLLIYRNNQRPSGVPDRFSGSKSGTSASLAISGLRSEDEADYYCAAWDVNLSGHWVFGGGTKLTVLG

- binding (human CXCR5 (human)): binds
- binding [1]: binds
B2: mAb 42F03 (antibody, human IgG1, V domains shown)
VH: EVQLLESGGGLVQPGGSLRLSCAASGFTFSWYPMTWVRQAPGKGLEWVSYIRSSGGFTKYADSVKGRFTISRDNSKNTLYLQMNSLRAEDTAVYYCARGLYRWGQGTLVTVSS
VL: IQMTQSPGTLSLSPGERATLSCRASQSVSNNYLAWYQQKPGQAPRLLISGASRRATDIADRFSGSGSGTDFTLTISRLEPEDFAVYYCQQYDSFPLTFGGGTKVEIK
